Test results from PubChem BioAssay AID1794845 (National Center for Advancing Translational Sciences (NCATS), 2023).
Fewer than 10 of roughly 6,900 compounds were called active. The call rests on the fitted dose curve; in most records, active means well fitted curve in the direction sought with a large enough effect; inconclusive means small, poorly fitted or top-dose-only effect, or another doubt; inactive means no such curve, though single readings can be large or run the other way. This is one part of the list.

Protein sequences, listed by entry. Tags and fused reporters are not part of them. Lines headed by an entry give the natural chain unless they say otherwise; changes in a name come on top.
UniProt C7C422: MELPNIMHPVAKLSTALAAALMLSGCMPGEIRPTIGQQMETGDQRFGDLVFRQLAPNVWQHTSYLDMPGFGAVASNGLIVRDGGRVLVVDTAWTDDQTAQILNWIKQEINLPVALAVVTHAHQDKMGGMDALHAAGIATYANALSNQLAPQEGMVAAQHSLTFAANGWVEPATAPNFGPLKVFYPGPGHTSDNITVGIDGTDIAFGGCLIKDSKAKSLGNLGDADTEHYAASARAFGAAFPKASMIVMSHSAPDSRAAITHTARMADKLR

Target: Metallo-beta-lactamase type 2 (Klebsiella pneumoniae) (UniProt C7C422)
Assay: qHTS to identify inhibitors of the New Delhi Metallo-beta-lactamase (NDM): primary screen against the NCATS Gemini Collection; further: % of control where 0% means no effect
Conditions: NDM-1 enzyme, meropenem hydrolysis, absorbance 300 nm; at 38.4 µM (top of the series) unless noted
Source text: Assay Submitter (PI): James Inglese Ph.D., Patricia Dranchak Ph.D., Mahesh Aitha Ph.D. Assay Development and Screening Technology Laboratory (ADST) National Center for Advancing Translational Sciences (NCATS), Rockville, MD National Institute of Health (NIH), Bethesda, Maryland The metallo-beta-lactamases (MBL) are a main antibiotic resistance mechanism evolved by bacteria. There is an urgent clinical need for MBL inhibitors to mitigate this growing threat. To support a machine-based learning study, qHTS has been used to experimentally test inhibitors identified by prediction tools.
PROTOCOL TABLE (as described by Inglese et al., 2007) SEQUENCE No. (e.g., 1, 2, 3, etc.); […] (e.g., enzyme, Incubation, Reagent, etc.); VALUE; DESCRIPTION 1; NDM-1; 4 uL of 3 nM enzyme [2 nM final] in 50 mM HEPES (pH 7.0), 1 uM […], 0.01% Tween20; Use BioRaptr to dispense into Aurora black, clear bottom low base 1536-well plates 2; Compounds; 23 nL; Use Pin Tool (Wako) to transfer DMSO control and library compounds in DMSO 3; Incubate; >30 min 4; Reagent; 2 uL of 150 uM meropenem [50 uM final] 5; Incubate; 30 min. 6; Detector; Absorbance at 300 nm (bandwidth = 5 nm, 25 flashes/well) on Tecan Infinity NOTES (numbers refer to sequence above) 1; Column 1 of each plate received assay buffer without enzyme and columns 2-48 received enzyme for a final assay concentration of 2 nM. 2; Control plate contained DMSO in columns 1, 2, 3, and 4. 3; Compound interaction with enzyme. 4; Meropenem substrate was prepared in the same assay buffer as step 1 for a final assay concentration of 50 uM and added to all wells across the assay plates. 5; Substrate interaction with enzyme, plateau phase of kinetics. 6; Default reader settings were applied for absorbance read at 300 nm, bandwidth = 5 nm, 25 flashes/well. References: Inglese J, Shamu CE, Guy RK. 2007. Reporting data from high-throughput screening of small-molecule libraries. Nat Chem Biol. doi:10.1038/nchembio0807-438 Yasgar A, Shinn P, Jadhav A, Auld D, Michael S, Zheng W, Austin CP, Inglese J, Simeonov A. 2008. Compound Management for Quantitative High-Throughput Screening. J Lab Autom 13:79 - 89. doi:10.1016/j.jala.2007.12.004

Row | SMILES | activity % (negative = inhibition)
1 | CC(C)N1CCN(C(=O)C2N(C(C)C)C(=O)C23CCCC3)CC1 (stereo unspecified) | inactive: -15.5%
2 | O=C(NCc1cccnc1)[C@@H]1C[C@@H](O)CN1C1CCN(C(=O)COc2ccccc2)CC1 | inactive: -6.73%
3 | CN1CC[C@H]2CN(C(=O)c3scc4c3OCCO4)C[C@@]2(C(=O)O)C1 | inactive: 41.3%
4 | COc1ccc(CC(=O)NC2CCN(c3nc4ncccc4o3)C2)cc1 (stereo unspecified) | inactive: 83.9% [at 57.5 µM]
5 | CC(=O)N1CCC(N2CC3(C2)C(=O)N(CCCN2CCCC2=O)C(=O)[C@@H]2C[C@@H](O)CN23)CC1 | inactive: -1.32%
6 | CC1CCN(C(=O)CC2Sc3ncccc3N(C)C2=O)CC1 (stereo unspecified) | inactive: 0.879%
7 | COc1cc(OC)cc(OCc2nnc(C(=O)N3CCC[C@@H]3C)n2-c2ccccc2)c1 | inactive: 22.1% [at 57.5 µM]
8 | CC(C)CN1CC2(C1)C(=O)N(CCCN1CCCC1=O)C(=O)[C@@H]1C[C@@H](O)CN12 | inactive: 4.85% [at 57.5 µM]
9 | CN(Cc1ccc2c(c1)OCO2)C(=O)C1(C)CCOCC1 | inactive: 5.41% [at 57.5 µM]
10 | CN(CCCc1nccn1C)C(=O)[C@H]1CCC[C@H](O)C1 | inactive: 8.87%
11 | CN(CC1CCCN(CCc2cccc(C(F)(F)F)c2)C1)C(=O)c1ccc2[nH]ccc2c1 (stereo unspecified) | inactive: 0.225%
12 | CCCS(=O)(=O)N1CCCCC1c1nc(-c2cnccn2)n[nH]1 (stereo unspecified) | inactive: 20.5%
13 | Cc1cccc2ncc(C(=O)N3CCC4(CCNC(=O)CC4)CC3)c(=O)n12 | inactive: 0.662%
14 | C[C@H]1[C@@H]2[C@@H](O)C([C@H](C)C(=O)NC3CCCCC3)CC[C@@]2(C)CC[C@@H]1NC(=O)C1CC1 (stereo partly specified) | inactive: 6.15% [at 57.5 µM]
15 | COc1ccc(O)c(CN2CCCC(Nc3ccc(F)cc3)C2)c1 (stereo unspecified) | inactive: -0.0764%
16 | Cc1nc(C)c(C(=O)N2CCc3onc(-c4cccc(F)c4)c3C2)s1 | inactive: -9.17%
17 | CC1(C)N=C(c2ccccc2)C(=O)N1CC(=O)N1CCN(c2ccccc2F)CC1 | inactive: 9.7%
18 | Cn1nc(-c2cccc(F)c2)c(N2CCCCC2)c1NC(=O)Nc1ccccc1 | inactive: 1.89%
19 | COc1ccc(C2(C(=O)N3CCCC(Cn4c(C)nc5cccnc54)C3)CCCCC2)cc1 (stereo unspecified) | inactive: 7.78%
20 | NC(=O)c1ccc2c(c1)C1(CCN(CC3CC3)C1)CN2Cc1ccccc1 (stereo unspecified) | inactive: 13.5% [at 57.5 µM]
21 | O=C(c1cc2ccccc2o1)N1CCC2(CCCN(Cc3ccccc3F)C2)C1 (stereo unspecified) | inactive: 8.54%

Sorted by heavy-atom count (largest number first): part of the list above.
Row | SMILES | activity % (negative = inhibition)
5 | CC(=O)N1CCC(N2CC3(C2)C(=O)N(CCCN2CCCC2=O)C(=O)[C@@H]2C[C@@H](O)CN23)CC1 | inactive: -1.32%
17 | CC1(C)N=C(c2ccccc2)C(=O)N1CC(=O)N1CCN(c2ccccc2F)CC1 | inactive: 9.7%
1 | CC(C)N1CCN(C(=O)C2N(C(C)C)C(=O)C23CCCC3)CC1 (stereo unspecified) | inactive: -15.5%

Remaining list, next part

Row | SMILES | activity % (negative = inhibition)
22 | CC(C)Oc1ccc2c(NC(=O)[C@H]3CCCO3)nn(CC(F)(F)F)c2c1 | inactive: 5.49%
23 | O=C(CC1C(=O)NCCN1Cc1ccoc1)NCc1nnc2n1CCCCC2 (stereo unspecified) | inactive: 1.94%
24 | CNC(=O)N1CCC(C2CCN(C(=O)CCn3cccn3)C2)CC1 (stereo unspecified) | inactive: 7.59%
25 | O=C(Cn1nc2c(cc1=O)CCCCC2)NC1CCN(C(=O)c2cc3ccccc3[nH]2)CC1 | inactive: 25.4%
26 | Cc1nc([C@@H]2CN(C(=O)c3ccc(Cn4ccnc4)o3)C[C@H]2C(N)=O)n[nH]1 | inactive: 6.59%
27 | O=C(C1CCCN1[S+](=O)([O-])c1cccc(C(F)(F)F)c1)N1CCC(N2CCCC2=O)CC1 (stereo unspecified) | inactive: -0.338%
28 | NC(=O)CNC(=O)C1=C[C@@H](NC(=O)Cc2cccs2)[C@@H](O)[C@H](O)C1 | inactive: 22.9% [at 57.5 µM]
29 | COc1ccccc1CC(=O)N1CCc2c(nc3cc(-c4ccccc4Cl)[nH]n3c2=O)C1 | inactive: 17.7%
30 | COc1ccc2c(c1)C=C(CN1CCCC(O)(CN(C)C)C1)CO2 (stereo unspecified) | inactive: -0.563%
31 | OCc1cc(CC2(NCc3ccccc3O)COC2)no1 | inactive: 2.49% [at 77.1 µM]
32 | CC(C)c1ccc(CN2CCCC3(CCN(c4ncccc4C(N)=O)C3)C2)cc1 (stereo unspecified) | inactive: 0.425%
33 | CN(C)C[C@@H]1CN(c2ncccn2)C[C@H]1N | inactive: 7.67%
34 | CN(CCc1ccccn1)C(=O)CCC[C@@H]1[C@H]2CCCN3CCC[C@@H](CN1C(=O)c1ccccc1)[C@@H]23 | inactive: -3.25%
35 | Cc1ccc(CNC(=O)c2ccc3c(c2)CN(Cc2scnc2C)CCO3)cc1 | inactive: 6.22%
36 | CN(C)C(=O)CCC(=O)N1CC[C@@](C)(O)[C@@H](Cc2ccccc2)C1 | inactive: 1.71%
37 | Nc1ncc(C(=O)N2CCC3(CC2)[C@H](O)C[C@@H]3O)c(C(F)(F)F)n1 | inactive: 34.6%
38 | COc1cccc([C@@H]2CN(C(=O)c3oc(C)nc3C)C[C@H]2C(=O)O)c1OC | inactive: 3.1%
39 | O=[S+]1([O-])NC2(CCN(Cc3ccccc3C(F)(F)F)C2)CNc2ccccc21 (stereo unspecified) | inactive: -0.385%
40 | O=C1CC2(CCN(C(=O)C3CCN(C(=O)c4ccccc4F)CC3)CC2)Oc2ccccc2N1 | inactive: -5.39%
41 | Cc1ccc(C(=O)N2C[C@@H](C)[C@](O)(C3CC3)C2)s1 | inactive: 11.1%
